Tested on: THP1 macrophages
Experiment: Macrophage activation: MCP1 and TNFα secretion induced by LPS from Klebsiella in THP1 macrophages (HTRF)
Type: cell-based
Details: Homo sapiens, THP-1, 10 μM, 24 h, then LPS Klebsiella 6 h; read-out: % inhibition of MCP1 secretion over mean Veh.
Procedure: In order to test the efficacy of the compounds on macrophage activation and pro-inflammatory cytokine production, 2.5×10^4 THP-1 cells were cultured in a 384-well plate and treated with 100 ng/mL PMA (#P8139, Sigma) for 24 h to induce differentiation into macrophages.
Then, medium was removed and FBS-deprived medium containing 1 or 10 μM compound was added for 24 h. Finally, THP1 macrophages were stimulated for 6 h with 100 ng/mL LPS (Klebsiella pneumoniae, #L4268, Sigma-Aldrich).
Monocyte chemoattractant protein 1 (MCP1) and […] (TNFα) were measured in cell supernatants by Homogeneous Time Resolved Fluorescence (HTRF, #62HTNFAPEG for TNFα, and 62HCCL2PEG for MCP1, Cisbio). Fluorescence was measured with Infinite 500 (#30019337, Tecan) to determine the concentration of cytokines.

Question: `CC(C)OC(=O)C(C)(C)Oc1ccc(C(=O)c2ccc(Cl)cc2)cc1` [Cpd. 19, fenofibrate, reference compound] was tested. Which inhibition at 10 µM did it give?
Answer: The inhibition at 10 µM was 89%.
